# Results as given in the supplement of paper PMC10849652.
# Sequences of proteins named here, by UniProt entry; tags and fusion partners are left off. A change or cut given only in a name is not applied to a line headed by its entry.
# UniProt O75190: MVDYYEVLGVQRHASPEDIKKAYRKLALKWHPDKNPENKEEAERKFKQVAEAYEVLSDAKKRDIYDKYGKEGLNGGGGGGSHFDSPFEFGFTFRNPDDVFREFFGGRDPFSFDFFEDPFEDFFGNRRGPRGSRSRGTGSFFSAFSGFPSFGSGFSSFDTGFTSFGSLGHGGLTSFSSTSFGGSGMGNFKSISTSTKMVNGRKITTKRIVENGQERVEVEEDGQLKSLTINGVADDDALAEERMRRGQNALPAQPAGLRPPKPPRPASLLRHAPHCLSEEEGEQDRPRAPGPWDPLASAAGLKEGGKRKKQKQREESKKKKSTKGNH
# UniProt Q99543: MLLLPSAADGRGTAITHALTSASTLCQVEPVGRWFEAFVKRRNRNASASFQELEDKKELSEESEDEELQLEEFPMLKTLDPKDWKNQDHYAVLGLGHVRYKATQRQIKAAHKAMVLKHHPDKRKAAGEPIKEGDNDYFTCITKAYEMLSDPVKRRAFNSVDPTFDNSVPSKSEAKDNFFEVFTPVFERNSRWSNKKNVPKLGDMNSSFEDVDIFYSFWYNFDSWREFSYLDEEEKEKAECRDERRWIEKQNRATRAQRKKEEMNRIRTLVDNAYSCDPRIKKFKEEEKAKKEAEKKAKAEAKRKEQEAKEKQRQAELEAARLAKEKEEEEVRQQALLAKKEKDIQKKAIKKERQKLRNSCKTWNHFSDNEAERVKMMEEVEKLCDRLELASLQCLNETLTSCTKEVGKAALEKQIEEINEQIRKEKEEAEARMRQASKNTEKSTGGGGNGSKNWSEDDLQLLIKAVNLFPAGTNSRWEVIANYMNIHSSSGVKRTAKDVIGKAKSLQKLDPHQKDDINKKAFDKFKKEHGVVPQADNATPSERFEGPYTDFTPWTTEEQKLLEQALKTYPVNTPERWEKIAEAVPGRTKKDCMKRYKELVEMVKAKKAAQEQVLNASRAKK
# UniProt Q8NBA8: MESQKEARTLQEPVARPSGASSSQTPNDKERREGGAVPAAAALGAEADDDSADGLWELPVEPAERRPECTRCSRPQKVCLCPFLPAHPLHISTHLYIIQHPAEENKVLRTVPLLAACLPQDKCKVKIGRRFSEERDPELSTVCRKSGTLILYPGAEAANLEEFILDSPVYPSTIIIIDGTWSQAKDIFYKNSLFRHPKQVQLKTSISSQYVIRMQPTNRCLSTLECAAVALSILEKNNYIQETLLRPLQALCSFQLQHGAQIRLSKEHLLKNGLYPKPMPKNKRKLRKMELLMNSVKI
# UniProt P33316: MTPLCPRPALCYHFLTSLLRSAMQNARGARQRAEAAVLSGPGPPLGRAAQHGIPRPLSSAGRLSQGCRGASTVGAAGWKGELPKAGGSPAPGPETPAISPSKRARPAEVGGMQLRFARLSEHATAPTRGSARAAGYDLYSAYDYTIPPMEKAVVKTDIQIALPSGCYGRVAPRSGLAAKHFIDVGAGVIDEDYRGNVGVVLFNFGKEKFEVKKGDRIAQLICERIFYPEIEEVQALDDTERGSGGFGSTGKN
# UniProt Q96F86: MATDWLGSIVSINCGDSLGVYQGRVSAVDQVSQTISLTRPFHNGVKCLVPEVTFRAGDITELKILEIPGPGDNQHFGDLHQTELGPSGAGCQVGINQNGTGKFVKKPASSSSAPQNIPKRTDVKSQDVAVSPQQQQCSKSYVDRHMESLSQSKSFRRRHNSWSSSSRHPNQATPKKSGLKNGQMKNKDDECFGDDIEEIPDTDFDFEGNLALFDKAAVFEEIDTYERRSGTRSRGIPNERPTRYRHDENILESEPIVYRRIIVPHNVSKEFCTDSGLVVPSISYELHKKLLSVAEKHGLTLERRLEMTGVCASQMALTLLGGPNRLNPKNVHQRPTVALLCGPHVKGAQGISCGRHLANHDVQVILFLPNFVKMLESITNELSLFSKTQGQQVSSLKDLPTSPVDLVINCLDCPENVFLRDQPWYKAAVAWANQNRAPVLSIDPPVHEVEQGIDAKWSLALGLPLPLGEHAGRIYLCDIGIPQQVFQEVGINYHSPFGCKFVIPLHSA
# UniProt Q6P2E9: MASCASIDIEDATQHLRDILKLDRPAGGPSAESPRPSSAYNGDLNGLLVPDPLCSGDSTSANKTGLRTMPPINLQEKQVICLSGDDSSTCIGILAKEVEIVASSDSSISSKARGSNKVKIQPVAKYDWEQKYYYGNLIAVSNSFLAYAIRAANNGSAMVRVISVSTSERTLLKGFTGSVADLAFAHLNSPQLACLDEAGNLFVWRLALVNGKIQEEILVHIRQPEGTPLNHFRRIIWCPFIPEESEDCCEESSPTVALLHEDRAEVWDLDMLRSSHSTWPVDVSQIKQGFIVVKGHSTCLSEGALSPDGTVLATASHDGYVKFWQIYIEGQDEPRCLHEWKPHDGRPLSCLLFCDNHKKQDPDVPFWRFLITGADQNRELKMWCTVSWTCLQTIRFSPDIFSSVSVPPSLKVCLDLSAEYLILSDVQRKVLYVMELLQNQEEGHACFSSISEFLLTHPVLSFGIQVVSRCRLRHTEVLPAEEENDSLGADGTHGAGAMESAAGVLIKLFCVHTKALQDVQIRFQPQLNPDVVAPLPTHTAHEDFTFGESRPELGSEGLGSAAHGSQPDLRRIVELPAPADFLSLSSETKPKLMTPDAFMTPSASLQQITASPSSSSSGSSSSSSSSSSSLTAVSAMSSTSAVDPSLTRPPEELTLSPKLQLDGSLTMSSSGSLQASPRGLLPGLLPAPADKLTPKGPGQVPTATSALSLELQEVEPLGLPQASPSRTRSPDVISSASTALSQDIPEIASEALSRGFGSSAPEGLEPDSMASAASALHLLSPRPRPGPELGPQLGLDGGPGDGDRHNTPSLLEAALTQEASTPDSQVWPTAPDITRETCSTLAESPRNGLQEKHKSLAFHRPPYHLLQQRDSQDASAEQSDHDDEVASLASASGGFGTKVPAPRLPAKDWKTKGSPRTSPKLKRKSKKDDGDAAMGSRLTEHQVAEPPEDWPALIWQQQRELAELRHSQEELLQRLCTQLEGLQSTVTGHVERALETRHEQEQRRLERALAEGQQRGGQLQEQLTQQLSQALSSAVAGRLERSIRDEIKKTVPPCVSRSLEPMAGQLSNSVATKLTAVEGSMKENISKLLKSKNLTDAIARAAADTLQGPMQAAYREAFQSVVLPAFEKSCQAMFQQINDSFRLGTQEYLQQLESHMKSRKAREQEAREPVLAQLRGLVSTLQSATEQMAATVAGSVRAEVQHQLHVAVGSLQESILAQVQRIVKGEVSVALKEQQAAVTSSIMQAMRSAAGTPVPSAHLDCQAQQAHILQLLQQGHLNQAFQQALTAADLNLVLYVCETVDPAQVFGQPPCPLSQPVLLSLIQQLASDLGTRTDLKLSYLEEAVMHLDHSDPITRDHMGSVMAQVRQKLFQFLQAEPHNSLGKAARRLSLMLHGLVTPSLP
# UniProt Q96KC8: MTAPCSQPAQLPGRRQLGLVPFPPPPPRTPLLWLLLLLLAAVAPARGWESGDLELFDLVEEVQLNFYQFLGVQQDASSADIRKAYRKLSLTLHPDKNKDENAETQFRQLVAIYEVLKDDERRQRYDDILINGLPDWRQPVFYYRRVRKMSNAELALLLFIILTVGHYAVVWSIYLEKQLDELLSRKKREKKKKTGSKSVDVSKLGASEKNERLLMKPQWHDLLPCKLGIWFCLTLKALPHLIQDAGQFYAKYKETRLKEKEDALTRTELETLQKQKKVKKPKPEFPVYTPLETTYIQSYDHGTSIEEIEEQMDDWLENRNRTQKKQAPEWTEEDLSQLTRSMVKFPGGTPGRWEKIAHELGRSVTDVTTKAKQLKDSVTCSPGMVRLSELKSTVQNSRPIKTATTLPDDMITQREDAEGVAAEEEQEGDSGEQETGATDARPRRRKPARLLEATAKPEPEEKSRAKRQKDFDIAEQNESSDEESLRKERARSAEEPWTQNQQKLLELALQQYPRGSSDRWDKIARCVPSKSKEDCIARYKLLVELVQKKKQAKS
# UniProt Q13409, whole entry, looked up: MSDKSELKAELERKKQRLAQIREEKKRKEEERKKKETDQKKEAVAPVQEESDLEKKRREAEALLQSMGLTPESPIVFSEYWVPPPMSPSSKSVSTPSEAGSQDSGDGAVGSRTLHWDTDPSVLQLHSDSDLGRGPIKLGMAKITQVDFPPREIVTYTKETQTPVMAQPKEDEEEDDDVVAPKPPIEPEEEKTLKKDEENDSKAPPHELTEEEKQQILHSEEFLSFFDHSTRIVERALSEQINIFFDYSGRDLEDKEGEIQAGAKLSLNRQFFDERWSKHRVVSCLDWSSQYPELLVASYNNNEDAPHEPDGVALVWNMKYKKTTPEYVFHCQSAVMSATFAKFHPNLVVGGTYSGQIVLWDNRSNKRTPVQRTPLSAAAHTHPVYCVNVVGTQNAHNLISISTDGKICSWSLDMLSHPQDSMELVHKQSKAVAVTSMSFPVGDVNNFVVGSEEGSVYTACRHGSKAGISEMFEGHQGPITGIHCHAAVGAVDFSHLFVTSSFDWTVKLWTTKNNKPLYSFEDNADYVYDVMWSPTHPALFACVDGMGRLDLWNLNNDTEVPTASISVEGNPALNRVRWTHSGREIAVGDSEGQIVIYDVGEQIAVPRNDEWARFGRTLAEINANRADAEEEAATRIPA
# UniProt O75061: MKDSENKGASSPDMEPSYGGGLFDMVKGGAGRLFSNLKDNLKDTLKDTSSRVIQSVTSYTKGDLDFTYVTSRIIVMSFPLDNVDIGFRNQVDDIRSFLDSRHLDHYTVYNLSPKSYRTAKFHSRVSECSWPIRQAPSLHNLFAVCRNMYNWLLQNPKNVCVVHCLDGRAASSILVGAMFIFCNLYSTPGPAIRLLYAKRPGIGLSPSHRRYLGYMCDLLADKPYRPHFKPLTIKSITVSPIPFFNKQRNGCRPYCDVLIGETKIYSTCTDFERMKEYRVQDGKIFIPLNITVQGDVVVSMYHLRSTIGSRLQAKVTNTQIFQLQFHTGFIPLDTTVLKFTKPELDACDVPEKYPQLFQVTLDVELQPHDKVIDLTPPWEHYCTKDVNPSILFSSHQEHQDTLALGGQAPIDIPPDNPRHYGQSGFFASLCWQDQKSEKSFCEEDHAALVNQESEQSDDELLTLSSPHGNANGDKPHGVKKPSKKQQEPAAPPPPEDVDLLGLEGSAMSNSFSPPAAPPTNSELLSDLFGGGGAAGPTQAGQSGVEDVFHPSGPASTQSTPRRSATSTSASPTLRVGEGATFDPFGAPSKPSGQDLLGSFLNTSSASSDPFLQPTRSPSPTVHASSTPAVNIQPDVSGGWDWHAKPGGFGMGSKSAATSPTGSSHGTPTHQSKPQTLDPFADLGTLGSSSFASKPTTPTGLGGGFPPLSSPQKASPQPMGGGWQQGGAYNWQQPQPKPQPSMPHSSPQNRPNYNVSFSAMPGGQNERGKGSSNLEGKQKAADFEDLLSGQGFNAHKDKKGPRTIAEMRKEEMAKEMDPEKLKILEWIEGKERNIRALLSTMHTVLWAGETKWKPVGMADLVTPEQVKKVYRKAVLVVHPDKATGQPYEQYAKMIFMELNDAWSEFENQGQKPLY
# UniProt Q5QJE6: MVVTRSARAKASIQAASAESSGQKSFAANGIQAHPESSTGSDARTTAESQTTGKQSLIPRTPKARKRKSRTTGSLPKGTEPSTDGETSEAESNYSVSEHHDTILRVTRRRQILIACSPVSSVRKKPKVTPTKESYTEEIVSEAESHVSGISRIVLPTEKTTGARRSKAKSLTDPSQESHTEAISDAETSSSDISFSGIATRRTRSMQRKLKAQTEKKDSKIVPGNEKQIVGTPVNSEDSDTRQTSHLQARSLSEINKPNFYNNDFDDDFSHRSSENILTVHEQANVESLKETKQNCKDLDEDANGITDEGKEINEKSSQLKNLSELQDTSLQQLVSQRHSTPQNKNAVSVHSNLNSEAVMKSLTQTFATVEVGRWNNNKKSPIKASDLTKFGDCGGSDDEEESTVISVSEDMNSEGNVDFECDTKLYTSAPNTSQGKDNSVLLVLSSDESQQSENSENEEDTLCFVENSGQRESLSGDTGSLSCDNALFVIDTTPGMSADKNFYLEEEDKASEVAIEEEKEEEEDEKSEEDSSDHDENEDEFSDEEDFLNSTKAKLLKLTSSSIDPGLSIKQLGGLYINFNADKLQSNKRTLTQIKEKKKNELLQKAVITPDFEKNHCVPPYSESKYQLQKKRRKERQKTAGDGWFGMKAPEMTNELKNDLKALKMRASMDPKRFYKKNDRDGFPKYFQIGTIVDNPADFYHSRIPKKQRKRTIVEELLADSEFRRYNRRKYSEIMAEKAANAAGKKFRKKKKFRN
# UniProt Q9NVM6: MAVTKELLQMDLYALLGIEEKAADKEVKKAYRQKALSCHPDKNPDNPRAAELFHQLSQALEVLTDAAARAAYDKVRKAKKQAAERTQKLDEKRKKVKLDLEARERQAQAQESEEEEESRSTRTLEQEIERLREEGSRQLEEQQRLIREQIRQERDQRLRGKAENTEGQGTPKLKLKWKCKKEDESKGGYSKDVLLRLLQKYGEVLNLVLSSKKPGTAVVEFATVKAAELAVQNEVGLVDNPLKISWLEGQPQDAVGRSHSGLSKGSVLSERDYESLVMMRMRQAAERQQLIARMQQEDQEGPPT
# Some of the results follow.
# Assays:
# Assay in all cases: log2 fold change, soluble protein after heating vs DMSO (PISA); higher = thermal stabilisation; K562 cells, 10 uM, 30 min; active = over 0.2 and 3.5 SD of the protein, either way, in both replicates (recomputed)
# bafetinib = compound: Cc1ccc(NC(=O)c2ccc(CN3CC[C@H](N(C)C)C3)c(C(F)(F)F)c2)cc1Nc1nccc(-c2cncnc2)n1 [bafetinib]
# Summary of the method: (§1)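 K562 cells at 2×10^6 cells/mL were treated for 30 min with 10 μM compound, and aliquots were heated for 3 min over 48°C-58°C before pooling. Extraction used PBS with 0.5% NP-40 at 4°C, and soluble protein was the supernatant after 21,000xg for 90 min, measured by TMTpro 16plex LC-MS/MS with channel sums equalised. Thermal stability values, relative to control samples and from duplicates, are log2 fold changes.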
# [1] = compound: Cc1cccc(CC(=O)N2CCc3c2ccc(-c2cn(C)c4ncnc(N)c24)c3F)n1
# Summary of the method: as §1
# nilotinib = compound: Cc1cn(-c2cc(NC(=O)c3ccc(C)c(Nc4nccc(-c5cccnc5)n4)c3)cc(C(F)(F)F)c2)cn1 [nilotinib]
# Summary of the method: as §1
# [2] = compound: Cc1nc(Nc2n[nH]c3c2CN(C(=O)N[C@H](CN(C)C)c2ccccc2)C3(C)C)c2sccc2n1
# Summary of the method: as §1
# dasatinib = compound: Cc1nc(Nc2ncc(C(=O)Nc3c(C)cccc3Cl)s2)cc(N2CCN(CCO)CC2)n1 [dasatinib]
# Summary of the method: as §1
# [3] = compound: Cc1ncc(-c2ccnc(Nc3ccc(S(C)(=O)=O)cc3)n2)n1C(C)C
# Summary of the method: as §1
# [4] = compound: Cn1cc(-c2ccc3c(c2)CCN3C(=O)Cc2cccc(C(F)(F)F)c2)c2c(N)ncnc21
# Summary of the method: as §1
# [5] = compound: Cn1cc(-c2ccc3nnc(C(F)(F)c4ccc5ncccc5c4)n3n2)cn1
# Summary of the method: as §1
# tipifarnib = compound: Cn1cncc1[C@@](N)(c1ccc(Cl)cc1)c1ccc2c(c1)c(-c1cccc(Cl)c1)cc(=O)n2C [tipifarnib]
# Summary of the method: as §1
# mubritinib = compound: FC(F)(F)c1ccc(/C=C/c2nc(COc3ccc(CCCCn4ccnn4)cc3)co2)cc1 [mubritinib]
# Summary of the method: as §1
# [6] = compound: NC(=O)Nc1cc(-c2cccc(F)c2)sc1C(=O)N[C@H]1CCCNC1
# Summary of the method: as §1
# [7] = compound: NC(=O)c1cnc(N[C@@H]2CCCC[C@@H]2N)nc1Nc1cccc(-n2nccn2)c1
# Summary of the method: as §1
# [8] = compound: NC1(c2ccc(-c3nc4ccn5c(=O)[nH]nc5c4cc3-c3ccccc3)cc2)CCC1
# Summary of the method: as §1
# [9] = compound: NCC(=O)Nc1ccc(-n2nc(C(F)(F)F)cc2-c2ccc3c(ccc4ccccc43)c2)cc1
# Summary of the method: as §1
# entinostat = compound: Nc1ccccc1NC(=O)c1ccc(CNC(=O)OCc2cccnc2)cc1 [entinostat]
# Summary of the method: as §1
# vorinostat = compound: O=C(CCCCCCC(=O)Nc1ccccc1)NO [vorinostat]
# Summary of the method: as §1
# citarinostat = compound: O=C(CCCCCCNC(=O)c1cnc(N(c2ccccc2)c2ccccc2Cl)nc1)NO [citarinostat]
# Summary of the method: as §1
# silmitasertib = compound: O=C(O)c1ccc2c(c1)nc(Nc1cccc(Cl)c1)c1ccncc12 [silmitasertib]
# Summary of the method: as §1
# [10] = compound: O=C1NC(=O)C(c2cnc3ccccn23)=C1c1cn2c3c(cc(F)cc13)CN(C(=O)N1CCCCC1)CC2
# Summary of the method: as §1
# [11] = compound: c1cc(OCCN2CCCCC2)cc(-c2n[nH]c3ccc(-c4nnc[nH]4)cc23)c1
# Summary of the method: as §1
Target,log2 fold change (bafetinib),log2 fold change [1],log2 fold change (nilotinib),log2 fold change [2],log2 fold change (dasatinib),log2 fold change [3],log2 fold change [4],log2 fold change [5],log2 fold change (tipifarnib),log2 fold change (mubritinib),log2 fold change [6],log2 fold change [7],log2 fold change [8],log2 fold change [9],log2 fold change (entinostat),log2 fold change (vorinostat),log2 fold change (citarinostat),log2 fold change (silmitasertib),log2 fold change [10],log2 fold change [11]
DNAJB6 (UniProt O75190),inactive: -0.03,inactive: 0.032,inactive: 0.054,inactive: 0.002,inactive: 0.044,inactive: -0.026,inactive: -0.057,inactive: 0.04,inactive: -0.059,inactive: -0.008,inactive: -0.08,inactive: -0.059,inactive: -0.018,inactive: -0.052,inactive: -0.03,inactive: 0.018,inactive: -0.025,inactive: -0.005,inactive: -0.005,inactive: -0.114
E2F4 (UniProt Q16254),inactive: -0.053,inactive: -0.026,inactive: -0.016,inactive: -0.141,inactive: -0.095,inactive: 0.012,inactive: -0.007,inactive: -0.006,inactive: -0.009,inactive: 0.01,inactive: 0.004,inactive: -0.052,inactive: -0.105,inactive: -0.032,inactive: 0.016,inactive: -0.052,inactive: 0.067,inactive: 0.001,inactive: 0.015,inactive: 0.005
DNAJC2 (UniProt Q99543),inactive: 0.108,inactive: 0.062,inactive: -0.268,inactive: -0.032,inactive: -0.109,inactive: 0.024,inactive: 0.004,inactive: -0.026,inactive: -0.082,inactive: -0.064,inactive: -0.079,inactive: -0.048,inactive: 0.034,inactive: -0.068,inactive: 0.061,inactive: 0.097,inactive: 0.109,inactive: 0.045,inactive: 0.208,inactive: -0.088
DTWD2 (UniProt Q8NBA8),inactive: -0.023,inactive: -0.008,inactive: 0.065,inactive: -0.019,inactive: 0.126,inactive: 0.022,inactive: 0.215,inactive: 0.096,inactive: -0.071,inactive: -0.087,inactive: 0.284,inactive: -0.03,inactive: -0.058,inactive: 0.068,inactive: -0.079,inactive: 0,inactive: 0.152,inactive: 0.089,inactive: 0.26,inactive: -0.123
DNAJC21 isoform 3 (UniProt Q5F1R6),inactive: 0.087,inactive: 0.023,inactive: -0.132,inactive: 0.032,inactive: -0.008,inactive: 0.034,inactive: -0.056,inactive: -0.004,inactive: 0.069,inactive: 0.039,inactive: -0.099,inactive: 0.045,inactive: 0.062,inactive: -0.021,inactive: -0.017,inactive: 0.085,inactive: -0.042,inactive: 0.035,inactive: 0.084,inactive: -0.092
DUT (UniProt P33316),inactive: -0.046,inactive: -0.005,inactive: -0.01,inactive: 0.081,inactive: -0.047,inactive: 0.033,inactive: 0.05,inactive: -0.034,inactive: -0.018,inactive: 0.019,inactive: 0.001,inactive: -0.028,inactive: -0.057,inactive: -0.094,inactive: -0.055,inactive: -0.006,inactive: 0.035,inactive: -0.03,inactive: -0.041,inactive: -0.007
EDC3 (UniProt Q96F86),inactive: -0.022,inactive: -0.013,inactive: -0.142,inactive: -0.127,inactive: -0.006,inactive: -0.151,inactive: -0.019,inactive: -0.006,inactive: -0.035,inactive: 0,inactive: -0.162,inactive: -0.229,inactive: -0.119,inactive: -0.075,inactive: 0.07,inactive: 0.154,inactive: 0.042,inactive: -0.047,inactive: -0.068,inactive: -0.152
EDC4 (UniProt Q6P2E9),inactive: 0.006,inactive: 0,inactive: 0.013,inactive: -0.077,inactive: -0.018,inactive: -0.119,inactive: -0.046,inactive: -0.031,inactive: -0.038,inactive: -0.019,inactive: -0.06,inactive: -0.024,inactive: -0.026,inactive: -0.082,inactive: 0.026,inactive: -0.023,inactive: 0.035,inactive: -0.05,inactive: -0.066,active: -0.253
DNAJC1 (UniProt Q96KC8),inactive: -0.185,inactive: -0.026,inactive: -0.035,inactive: 0.016,inactive: -0.064,inactive: 0.002,inactive: 0.028,inactive: 0.047,inactive: 0.039,inactive: 0.041,inactive: 0.013,inactive: -0.055,inactive: -0.082,inactive: -0.08,inactive: 0.042,inactive: 0.106,inactive: 0.017,inactive: 0.01,inactive: -0.016,inactive: -0.083
DYNC1I2 isoform 5 (UniProt Q13409),inactive: -0.071,inactive: -0.018,inactive: 0.015,inactive: 0.002,inactive: -0.012,inactive: 0.011,inactive: 0.003,inactive: -0.008,inactive: -0.038,inactive: 0.046,inactive: -0.021,inactive: -0.016,inactive: -0.023,inactive: 0.059,inactive: -0.018,inactive: -0.044,inactive: 0.015,inactive: 0.004,inactive: -0.012,inactive: 0.004
DNAJC6 isoform 2 (UniProt O75061),inactive: -0.087,inactive: 0.017,inactive: -0.047,inactive: -0.002,inactive: -0.036,inactive: -0.054,inactive: 0.01,inactive: -0.045,inactive: -0.013,inactive: 0.036,inactive: -0.036,inactive: -0.022,inactive: -0.067,inactive: -0.035,inactive: -0.013,inactive: 0.059,inactive: -0.009,inactive: 0.002,inactive: -0.09,inactive: -0.068
DNAJC7 (UniProt Q99615),inactive: -0.047,inactive: 0.031,inactive: -0.107,inactive: -0.048,inactive: -0.136,inactive: 0.024,inactive: 0.068,inactive: 0.058,inactive: -0.012,inactive: 0.037,inactive: -0.067,inactive: -0.029,inactive: -0.204,inactive: -0.071,inactive: 0.05,inactive: 0.043,inactive: 0.071,inactive: 0.001,inactive: -0.03,inactive: -0.001
DNTTIP2 (UniProt Q5QJE6),inactive: 0.148,inactive: -0.05,inactive: 0.064,inactive: -0.02,inactive: 0.148,inactive: -0.29,inactive: -0.104,inactive: -0.035,inactive: 0.256,inactive: -0.074,inactive: 0.14,inactive: -0.054,inactive: 0.155,inactive: 0.029,inactive: -0.03,inactive: 0.045,inactive: 0.016,inactive: 0.102,inactive: -0.028,inactive: -0.095
DNAJC17 (UniProt Q9NVM6),inactive: -0.11,inactive: 0.011,inactive: 0.027,inactive: -0.043,inactive: -0.11,inactive: 0.029,inactive: 0.027,inactive: -0.003,inactive: 0.019,inactive: 0.035,inactive: -0.022,inactive: -0.006,inactive: -0.024,inactive: -0.002,inactive: -0.049,inactive: -0.122,inactive: 0.026,inactive: 0.016,inactive: 0.03,inactive: 0.083
DPH2 (UniProt Q9BQC3),inactive: -0.048,inactive: -0.005,inactive: -0.026,inactive: 0.008,inactive: -0.014,inactive: -0.058,inactive: -0.018,inactive: -0.052,inactive: -0.017,inactive: 0.029,inactive: 0,inactive: -0.088,inactive: -0.049,inactive: -0.019,inactive: 0.028,inactive: 0.014,inactive: -0.001,inactive: -0.058,inactive: -0.081,inactive: -0.018
EEA1 (UniProt Q15075),inactive: -0.043,inactive: -0.021,inactive: 0.013,inactive: 0,inactive: 0.061,inactive: 0.004,inactive: -0.015,inactive: 0.028,inactive: 0.007,inactive: 0.041,inactive: 0.013,inactive: -0.014,inactive: 0.006,inactive: -0.014,inactive: -0.023,inactive: 0.004,inactive: -0.001,inactive: 0.015,inactive: 0.006,inactive: -0.043

# Only log2 fold change [3], log2 fold change [7] and log2 fold change [11] (2 entries from above):
Target,log2 fold change [3],log2 fold change [7],log2 fold change [11]
DUT (UniProt P33316),inactive: 0.033,inactive: -0.028,inactive: -0.007
EDC4 (UniProt Q6P2E9),inactive: -0.119,inactive: -0.024,active: -0.253
